Test results reported in PMC11670205 (Frontiers in Immunology, 2024).
These are yes or no findings as the source states them, for the method shown. Some results given as binding are weak or reduced against the parent protein; the word gives no strength.

Sequences of proteins named here, by UniProt entry; tags and fusion partners are left off. A change or cut given only in a name is not applied to a line headed by its entry. Residues count along the entry.
UniProt Q9HC73: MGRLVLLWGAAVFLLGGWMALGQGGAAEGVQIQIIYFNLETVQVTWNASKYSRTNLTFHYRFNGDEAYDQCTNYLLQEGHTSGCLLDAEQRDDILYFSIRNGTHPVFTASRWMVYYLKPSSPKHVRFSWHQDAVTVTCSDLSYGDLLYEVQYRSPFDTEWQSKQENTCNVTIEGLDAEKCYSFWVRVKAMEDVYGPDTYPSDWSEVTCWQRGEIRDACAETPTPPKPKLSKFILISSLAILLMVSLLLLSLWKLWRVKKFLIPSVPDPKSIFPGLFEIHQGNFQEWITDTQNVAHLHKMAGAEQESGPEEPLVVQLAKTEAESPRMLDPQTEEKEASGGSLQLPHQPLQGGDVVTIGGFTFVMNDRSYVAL
UniProt P16871: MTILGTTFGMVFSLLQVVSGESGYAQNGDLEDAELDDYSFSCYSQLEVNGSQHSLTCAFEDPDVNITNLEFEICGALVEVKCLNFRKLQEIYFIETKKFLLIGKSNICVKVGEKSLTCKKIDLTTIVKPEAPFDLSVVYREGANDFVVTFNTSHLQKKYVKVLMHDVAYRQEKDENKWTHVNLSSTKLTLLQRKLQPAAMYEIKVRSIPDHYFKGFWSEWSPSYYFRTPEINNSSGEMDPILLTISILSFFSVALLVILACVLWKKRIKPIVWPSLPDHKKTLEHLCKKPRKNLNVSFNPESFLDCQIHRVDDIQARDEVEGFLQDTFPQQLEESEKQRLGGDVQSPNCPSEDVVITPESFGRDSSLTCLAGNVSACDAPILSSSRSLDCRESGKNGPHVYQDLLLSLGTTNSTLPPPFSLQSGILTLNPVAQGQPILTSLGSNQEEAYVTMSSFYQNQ
UniProt Q969D9, residues 29-159: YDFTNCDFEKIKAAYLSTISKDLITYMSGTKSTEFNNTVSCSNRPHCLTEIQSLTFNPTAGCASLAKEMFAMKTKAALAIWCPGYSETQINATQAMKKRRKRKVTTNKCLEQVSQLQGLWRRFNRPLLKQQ

Molecular target: human TSLP receptor complex composed of IL-7Rα and TSLPR expressed on cell surface of transfected HEK293T (human) (UniProt Q9HC73+P16871)
Assay: flow cytometry on cells; 5 ng/mL biotinylated human TSLP on HEK293T cells co-transfected with human IL-7Rα and TSLPR, 2 hours; PE-streptavidin; only the binder purified

biotinylated human TSLP (from UniProt Q969D9 29-159) (ligand)
binding: binds
